The data set can be described thus: Identification and label-free relative LC-MS quantitation of HLA-presented peptides on tumor and normal tissue samples (XPRESIDENT presentation profiles). The arrangement: species or system human. Particulars: for Entities of particular interest: entities where the peptide was over-presented on cancer samples compared to normal tissues; for Additional entities of particular interest (presentation of selected peptides across entities): tumor entities on which the HLA-presented peptide was found, entity abbreviations defined in the title of Table 4B.

For “29 (KMISAIPTL; listed as Homo sapiens) [compound 29]”, the “Entities of particular interest” value was “NSCLC, OC” and the “Additional entities of particular interest (presentation of selected peptides across entities)” value is listed as “UTC”. Turning to “30 (IITEVITRL; listed as Homo sapiens) [compound 30]”, the “Additional entities of particular interest (presentation of selected peptides across entities)” value was “OC, UTC”. “34 (TLNTLDINL; listed as Homo sapiens) [compound 34]”: the “Entities of particular interest” value is given as “OC, PC” and the “Additional entities of particular interest (presentation of selected peptides across entities)” value was “UTC”. Turning to “38 (VLQQESNFL; listed as Homo sapiens) [compound 38]”, the “Additional entities of particular interest (presentation of selected peptides across entities)” value is “AML”. With “40 (KIWEELSVLEV; listed as Homo sapiens) [compound 40]”, the “Entities of particular interest” value is listed as “GC, NSCLC, HCC, MEL” and the “Additional entities of particular interest (presentation of selected peptides across entities)” value is recorded as “SCLC, UBC”. Regarding “44 (AVFNLVHVV; listed as Homo sapiens) [compound 44]”, the “Entities of particular interest” value is “GC, NSCLC, PC”. Turning to “46 (ISLDEVAVSL; listed as Homo sapiens) [compound 46]”, the “Entities of particular interest” value is “GB, NSCLC, HCC, OC” and the “Additional entities of particular interest (presentation of selected peptides across entities)” value is listed as “BRCA”. With “47 (GLNGFNVLL; listed as Homo sapiens) [compound 47]”, the “Entities of particular interest” value is “PC, OSCAR” and the “Additional entities of particular interest (presentation of selected peptides across entities)” value is reported as “SCLC, UTC, GBC_CCC, MEL, CRC, AML, NHL”. On to “49 (KLIGNIHGNEV; listed as Homo sapiens) [compound 49]”, for which the “Entities of particular interest” value was “GB, NSCLC, OC”. With “50 (ILLSVLHQL; listed as Homo sapiens) [compound 50]”, the “Entities of particular interest” value was “NSCLC, CRC”. In the case of “51 (LDSEALLTL; listed as Homo sapiens) [compound 51]”, the “Entities of particular interest” value was “GB, NSCLC, HCC” and the “Additional entities of particular interest (presentation of selected peptides across entities)” value is “BRCA”.

Regarding “53 (AQHLSTLLL; listed as Homo sapiens) [compound 53]”, the “Entities of particular interest” value was “GC, NSCLC” and the “Additional entities of particular interest (presentation of selected peptides across entities)” value is reported as “SCLC, GBC_CCC”.

In the case of “54 (YLVPGLVAA; listed as Homo sapiens) [compound 54]”, the “Entities of particular interest” value was “NSCLC, OC”. Still for that read-out and setting: the same measure for “55 (HLFDKIIKI; listed as Homo sapiens) [compound 55]”: “GC, CRC”. On to “56 (VLQENSSDYQSNL; listed as Homo sapiens) [compound 56]”, for which the “Entities of particular interest” value is on record as “NSCLC, HCC” and the “Additional entities of particular interest (presentation of selected peptides across entities)” value was “UTC”. As to “57 (TLYPGRFDYV; listed as Homo sapiens) [compound 57]”, the “Entities of particular interest” value was “NSCLC, PC” and the “Additional entities of particular interest (presentation of selected peptides across entities)” value was “OSCAR, UBC”.

Regarding “59 (ALADGIKSFLL; listed as Homo sapiens) [compound 59]”, the “Entities of particular interest” value is “NSCLC, PC” and the “Additional entities of particular interest (presentation of selected peptides across entities)” value is given as “BRCA, MEL”. On to “60 (YLFSQGLQGL; listed as Homo sapiens) [compound 60]”, for which the “Entities of particular interest” value is “NSCLC, PC”. For the substance “61 (ALYPKEITL; listed as Homo sapiens) [compound 61]”, the “Entities of particular interest” value is “NSCLC, CRC”. With “63 (KLLPMVIQL; listed as Homo sapiens) [compound 63]”, the “Entities of particular interest” value is on record as “NSCLC, PC”. As to “64 (SLYAGSNNQV; listed as Homo sapiens) [compound 64]”, the “Additional entities of particular interest (presentation of selected peptides across entities)” value is on record as “NSCLC”. Consider “65 (SLSEKSPEV; listed as Homo sapiens) [compound 65]”, for which the “Entities of particular interest” value is listed as “NSCLC, OC, OSCAR, MEL” and the “Additional entities of particular interest (presentation of selected peptides across entities)” value is “HCC, SCLC, UBC, UTC, BRCA, NHL”. For the substance “66 (AMFPDTIPRV; listed as Homo sapiens) [compound 66]”, the “Entities of particular interest” value is “NSCLC, OC”.

On to “67 (FLIENLLAA; listed as Homo sapiens) [compound 67]”, for which the “Entities of particular interest” value was “GB, NSCLC” and the “Additional entities of particular interest (presentation of selected peptides across entities)” value is on record as “UTC”.

Regarding “68 (QLMNLIRSV; listed as Homo sapiens) [compound 68]”, the “Entities of particular interest” value was “HCC, PC” and the “Additional entities of particular interest (presentation of selected peptides across entities)” value is “UBC, AML”. On to “69 (LKVLKADVVL; listed as Homo sapiens) [compound 69]”, for which the “Entities of particular interest” value was “GC, NSCLC”. On the same count and under the same terms, the same measure for “71 (HMSGKLTNV; listed as Homo sapiens) [compound 71]”: “NSCLC, PC”. In the case of “73 (SVPKTLGV; listed as Homo sapiens) [compound 73]”, the “Entities of particular interest” value is “GB, RCC”. “74 (GLAFLPASV; listed as Homo sapiens) [compound 74]”: the “Entities of particular interest” value is reported as “GC, CRC”. As for “75 (ALLDGALQL; listed as Homo sapiens) [compound 75]”, the “Additional entities of particular interest (presentation of selected peptides across entities)” value is “GC, CRC”. “76 (FTAEFLEKV; listed as Homo sapiens) [compound 76]”: the “Entities of particular interest” value is “NSCLC, PC, GB, OSCAR” and the “Additional entities of particular interest (presentation of selected peptides across entities)” value is reported as “UBC, MEL, AML, NHL”. Take “77 (ALYGNVQQV; listed as Homo sapiens) [compound 77]”: the “Entities of particular interest” value was “NSCLC, OC” and the “Additional entities of particular interest (presentation of selected peptides across entities)” value is “BRCA, NHL”. Turning to “78 (LFQSRIAGV; listed as Homo sapiens) [compound 78]”, the “Additional entities of particular interest (presentation of selected peptides across entities)” value is listed as “BPH”.

With “82 (ILAEEPIYIRV; listed as Homo sapiens) [compound 82]”, the “Entities of particular interest” value is given as “NSCLC, PC, OSCAR, OC”. With “83 (GLLENSPHL; listed as Homo sapiens) [compound 83]”, the “Entities of particular interest” value is listed as “NSCLC, OC” and the “Additional entities of particular interest (presentation of selected peptides across entities)” value is listed as “BRCA, MEL, AML, NHL”. Consider “84 (FLLEREQLL; listed as Homo sapiens) [compound 84]”, for which the “Entities of particular interest” value is given as “NSCLC, MEL, RCC, CRC, PC” and the “Additional entities of particular interest (presentation of selected peptides across entities)” value is listed as “CLL, UBC, UTC, BRCA, AML, NHL”. With “86 (SLFSNIESV; listed as Homo sapiens) [compound 86]”, the “Entities of particular interest” value is recorded as “NSCLC, BPH, CRC” and the “Additional entities of particular interest (presentation of selected peptides across entities)” value is on record as “SCLC, BRCA, GBC_CCC”.

For “87 (KLLSLLEEA; listed as Homo sapiens) [compound 87]”, the “Additional entities of particular interest (presentation of selected peptides across entities)” value is recorded as “NSCLC, BPH”. “88 (LLLPLELSLA; listed as Homo sapiens) [compound 88]”: the “Entities of particular interest” value is “GB, NSCLC, PC”. Consider “92 (RLFEEVLGV; listed as Homo sapiens) [compound 92]”, for which the “Entities of particular interest” value is given as “NSCLC, HCC, OC, OC” and the “Additional entities of particular interest (presentation of selected peptides across entities)” value is “OSCAR, SCLC, UBC, BRCA, AML”. Take “95 (KLIDEDEPLFL; listed as Homo sapiens) [compound 95]”: the “Entities of particular interest” value is “NSCLC, OC” and the “Additional entities of particular interest (presentation of selected peptides across entities)” value is on record as “SCLC, UTC, GBC_CCC”.

With “96 (ALDTTRHEL; listed as Homo sapiens) [compound 96]”, the “Entities of particular interest” value is “NSCLC, PC” and the “Additional entities of particular interest (presentation of selected peptides across entities)” value is reported as “OSCAR, UBC, UTC”. As to “97 (KLFEKSTGL; listed as Homo sapiens) [compound 97]”, the “Entities of particular interest” value is on record as “NSCLC, CRC”.

Take “98 (FVQEKIPEL; listed as Homo sapiens) [compound 98]”: the “Entities of particular interest” value was “GC, CRC” and the “Additional entities of particular interest (presentation of selected peptides across entities)” value is reported as “GBC_CCC”. Take “99 (TLFGIQLTEA; listed as Homo sapiens) [compound 99]”: the “Additional entities of particular interest (presentation of selected peptides across entities)” value was “GC, GBC_CCC”.

On to “100 (ALQSFEFRV; listed as Homo sapiens) [compound 100]”, for which the “Entities of particular interest” value is listed as “OC, RCC”. With “101 (SLLEVNEASSV; listed as Homo sapiens) [compound 101]”, the “Entities of particular interest” value was “GC, CLL” and the “Additional entities of particular interest (presentation of selected peptides across entities)” value is listed as “NHL”.

Consider “102 (GLYPVTLVGV; listed as Homo sapiens) [compound 102]”, for which the “Entities of particular interest” value is “BPH, OC” and the “Additional entities of particular interest (presentation of selected peptides across entities)” value is reported as “SCLC, BRCA, AML”. Regarding “103 (YLADTVQKL; listed as Homo sapiens) [compound 103]”, the “Additional entities of particular interest (presentation of selected peptides across entities)” value is reported as “NSCLC”.

“106 (VLLGSVVIFA; listed as Homo sapiens) [compound 106]”: the “Additional entities of particular interest (presentation of selected peptides across entities)” value is listed as “BPH”. With “108 (FIANLPPELKA; listed as Homo sapiens) [compound 108]”, the “Additional entities of particular interest (presentation of selected peptides across entities)” value was “BPH”. The same measure, in the same setting: the same measure for “109 (ILGSFELQL; listed as Homo sapiens) [compound 109]”: “BPH”; for “110 (QIQGQVSEV; listed as Homo sapiens) [compound 110]”: “BPH”; for “113 (FLFLKEVKV; listed as Homo sapiens) [compound 113]”: “CRC”. For the substance “116 (ALLSSVAEA; listed as Homo sapiens) [compound 116]”, the “Entities of particular interest” value was “NSCLC, OSCAR, OC” and the “Additional entities of particular interest (presentation of selected peptides across entities)” value is reported as “SCLC, BRCA, CRC”. On to “118 (IAYNPNGNAL; listed as Homo sapiens) [compound 118]”, for which the “Additional entities of particular interest (presentation of selected peptides across entities)” value was “NSCLC, CLL, AML”.
